Source: publication PMC9945446

Chains of the proteins cited; added tags and fusions are not shown. Lines headed by an entry give the natural chain unless they say otherwise; changes in a name come on top.
UniProt P26358: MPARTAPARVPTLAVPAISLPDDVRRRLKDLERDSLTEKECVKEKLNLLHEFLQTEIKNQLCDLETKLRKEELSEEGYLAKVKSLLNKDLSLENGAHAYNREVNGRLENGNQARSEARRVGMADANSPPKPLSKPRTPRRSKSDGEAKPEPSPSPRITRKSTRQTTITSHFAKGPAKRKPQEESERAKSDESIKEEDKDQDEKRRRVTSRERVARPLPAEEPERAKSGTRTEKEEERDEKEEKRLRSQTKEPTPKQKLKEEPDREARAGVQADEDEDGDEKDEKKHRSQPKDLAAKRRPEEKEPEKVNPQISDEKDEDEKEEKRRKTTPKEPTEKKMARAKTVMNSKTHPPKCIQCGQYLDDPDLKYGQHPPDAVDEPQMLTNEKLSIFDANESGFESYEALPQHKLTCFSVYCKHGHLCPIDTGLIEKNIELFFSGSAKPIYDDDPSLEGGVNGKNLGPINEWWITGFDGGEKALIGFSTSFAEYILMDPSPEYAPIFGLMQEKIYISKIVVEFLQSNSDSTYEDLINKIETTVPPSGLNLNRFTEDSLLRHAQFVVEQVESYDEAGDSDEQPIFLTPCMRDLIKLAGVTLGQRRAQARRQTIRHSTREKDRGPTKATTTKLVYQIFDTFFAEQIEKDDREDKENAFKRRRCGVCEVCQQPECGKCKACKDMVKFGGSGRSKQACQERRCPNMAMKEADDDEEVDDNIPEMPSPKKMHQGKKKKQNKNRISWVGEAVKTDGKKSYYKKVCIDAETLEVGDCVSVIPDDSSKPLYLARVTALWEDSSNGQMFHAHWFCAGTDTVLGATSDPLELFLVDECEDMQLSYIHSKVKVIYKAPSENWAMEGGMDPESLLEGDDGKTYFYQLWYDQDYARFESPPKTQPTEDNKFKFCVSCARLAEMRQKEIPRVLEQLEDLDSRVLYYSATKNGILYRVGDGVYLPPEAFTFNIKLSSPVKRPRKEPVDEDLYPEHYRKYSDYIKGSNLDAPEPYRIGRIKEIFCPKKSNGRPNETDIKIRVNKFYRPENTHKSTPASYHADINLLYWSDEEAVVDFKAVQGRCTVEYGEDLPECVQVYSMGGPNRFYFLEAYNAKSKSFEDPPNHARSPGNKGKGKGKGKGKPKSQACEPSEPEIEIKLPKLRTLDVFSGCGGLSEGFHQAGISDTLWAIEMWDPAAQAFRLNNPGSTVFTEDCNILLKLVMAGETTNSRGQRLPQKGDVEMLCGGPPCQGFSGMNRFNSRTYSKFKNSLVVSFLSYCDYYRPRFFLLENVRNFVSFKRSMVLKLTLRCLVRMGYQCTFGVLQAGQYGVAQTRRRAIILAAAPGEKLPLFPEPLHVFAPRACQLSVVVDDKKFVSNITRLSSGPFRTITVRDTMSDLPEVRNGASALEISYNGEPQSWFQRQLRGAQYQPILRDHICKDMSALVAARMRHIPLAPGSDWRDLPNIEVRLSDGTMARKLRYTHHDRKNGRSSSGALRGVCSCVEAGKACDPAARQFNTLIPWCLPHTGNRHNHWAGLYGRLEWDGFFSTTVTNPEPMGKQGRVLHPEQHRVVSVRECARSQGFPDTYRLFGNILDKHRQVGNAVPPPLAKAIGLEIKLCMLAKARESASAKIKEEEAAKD

Target: DNMT1 (human) (UniProt P26358)
Test: EMSA
Settings: 50 mM Tris-HCl pH 7.5, 100 mM KCl (or LiCl), 2.5 mM MgCl2, 0.1 mM ZnCl2, 2 mM BME, 0.05% NP40, 5% glycerol, 0.1 mg/mL BSA, 0.1 mg/mL yeast tRNA, 30 C 1 h, recombinant protein, residues 1-1616, protein details: MBP tag cleaved with PreScission protease, label: 5' 32P; for binding signal (fold weaker than in K+): 100 mM LiCl (unfolded)

Row | Sequence | binding result (100 mM KCl, somewhat weaker than (GGAA)10) | binding signal (fold weaker than in K+)
1 | GAGAGAGAGAGAGAGAGAGAGAGAGAGAGAGAGAGAGAGA [(GA)20] | binds more weakly | 
2 | GUGUGUGUGUGUGUGUGUGUGUGUGUGUGUGUGUGUGUGUGUGUGUGUGUGUGUGUGUGU [(GU)30] |  | > 50
3 | GUGUGUGUGUGUGUGUGUGUGUGUGUGUGUGUGUGUGUGU [(GU)20] |  | 8

Weaker means in comparison with the reference protein, sequence or condition of that experiment. The exact form of at least one protein or probe is not confirmed. The direction of at least one scale is not stated here.
